## Percent effect of library compounds

Sequences of proteins named here, by UniProt entry; tags and fusion partners are left off.
UniProt I6X8D2, whole entry: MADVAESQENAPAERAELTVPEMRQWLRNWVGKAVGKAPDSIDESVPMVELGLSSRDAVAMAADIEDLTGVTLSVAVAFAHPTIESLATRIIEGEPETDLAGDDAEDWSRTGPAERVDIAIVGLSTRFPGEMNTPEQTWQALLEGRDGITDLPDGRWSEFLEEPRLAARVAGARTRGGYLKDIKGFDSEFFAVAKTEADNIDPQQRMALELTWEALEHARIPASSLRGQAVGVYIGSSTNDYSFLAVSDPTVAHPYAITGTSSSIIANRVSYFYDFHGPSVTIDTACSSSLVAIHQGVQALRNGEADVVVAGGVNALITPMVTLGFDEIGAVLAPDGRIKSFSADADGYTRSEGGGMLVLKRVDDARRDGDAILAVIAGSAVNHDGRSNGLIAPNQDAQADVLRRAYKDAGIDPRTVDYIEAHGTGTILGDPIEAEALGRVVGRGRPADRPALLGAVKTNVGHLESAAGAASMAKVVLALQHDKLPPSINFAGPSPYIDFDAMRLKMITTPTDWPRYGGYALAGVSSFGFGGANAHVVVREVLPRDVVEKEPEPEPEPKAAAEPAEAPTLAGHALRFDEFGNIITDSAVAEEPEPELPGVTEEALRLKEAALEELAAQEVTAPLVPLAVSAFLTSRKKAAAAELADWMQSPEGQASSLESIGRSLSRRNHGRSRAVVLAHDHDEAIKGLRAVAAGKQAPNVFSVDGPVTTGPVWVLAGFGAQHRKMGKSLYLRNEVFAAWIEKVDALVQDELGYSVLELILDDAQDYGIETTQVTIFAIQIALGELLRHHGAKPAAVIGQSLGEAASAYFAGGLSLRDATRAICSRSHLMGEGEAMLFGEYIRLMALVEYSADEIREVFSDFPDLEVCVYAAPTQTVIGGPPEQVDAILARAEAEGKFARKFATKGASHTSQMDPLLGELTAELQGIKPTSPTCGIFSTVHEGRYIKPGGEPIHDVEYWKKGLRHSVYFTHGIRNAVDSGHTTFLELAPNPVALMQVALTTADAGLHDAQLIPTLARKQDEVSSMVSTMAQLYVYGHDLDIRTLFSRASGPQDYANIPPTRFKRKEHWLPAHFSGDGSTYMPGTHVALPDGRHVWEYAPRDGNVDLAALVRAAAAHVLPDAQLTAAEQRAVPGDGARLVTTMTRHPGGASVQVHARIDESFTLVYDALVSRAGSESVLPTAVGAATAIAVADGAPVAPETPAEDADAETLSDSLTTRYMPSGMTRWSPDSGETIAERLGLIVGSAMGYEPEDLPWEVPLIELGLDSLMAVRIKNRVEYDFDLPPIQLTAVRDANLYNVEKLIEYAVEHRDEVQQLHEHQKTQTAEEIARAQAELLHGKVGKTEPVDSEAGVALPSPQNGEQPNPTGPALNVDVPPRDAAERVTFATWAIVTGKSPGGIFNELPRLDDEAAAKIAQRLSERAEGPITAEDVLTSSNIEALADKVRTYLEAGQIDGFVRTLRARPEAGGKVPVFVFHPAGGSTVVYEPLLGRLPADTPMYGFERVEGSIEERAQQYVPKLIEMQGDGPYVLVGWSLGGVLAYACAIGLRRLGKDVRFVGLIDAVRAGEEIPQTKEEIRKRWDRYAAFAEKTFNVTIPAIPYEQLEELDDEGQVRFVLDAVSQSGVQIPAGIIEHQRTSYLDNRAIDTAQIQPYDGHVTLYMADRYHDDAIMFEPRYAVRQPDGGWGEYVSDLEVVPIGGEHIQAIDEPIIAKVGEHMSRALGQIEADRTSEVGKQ

The filed quantity is “Percent Effect” (%). The controls that fix the scale are not given in the record; negative values are as filed. This is an unselected part of the compounds tested.

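Enzyme assay of the thioesterase domain of polyketide synthase 13; the read-out is not stated. Target: Polyketide synthase Pks13, Mycobacterium tuberculosis (UniProt I6X8D2). Compounds at 30 µM. Higher reads as stronger inhibition (inferred from which compounds were picked for retests). Size under these conditions: about 67,000 compounds, about 300 of them at 50% or above in at least one test.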

{"compound": "COc1ccc(NCc2ccccc2N2CCN(C(C)=O)CC2)cn1", "Percent Effect": -3.92}
{"compound": "CCNc1cc2c(nn1)CCN(C(=O)c1cc3ccccc3o1)C2", "Percent Effect": -53.99}
{"compound": "Cc1nc(CN2CCc3nn(C)c(=O)cc3C2)oc1C", "Percent Effect": -8.615}
{"compound": "CC(C)(CO)CCCNC(=O)NC1(C)Cc2ccccc2C1", "Percent Effect": 0.2718}
{"compound": "CCN1CCN(C(=O)NCc2cccnc2-n2cccn2)CC1", "Percent Effect": -30.49}
{"compound": "CC(=O)N1CCC(c2nc3ccc(NC4CCC4)cn3n2)CC1", "Percent Effect": -3.466}
{"compound": "CCOCc1ccccc1NC(=O)NCC(C)(O)c1cc(C)oc1C", "stereo": "centres unmarked", "Percent Effect": 40.59}
{"compound": "Cc1nc(C2CCCN2C(=O)c2cc3c(s2)CCCC3)no1", "stereo": "centres unmarked", "Percent Effect": 0.4873}
{"compound": "O=c1[nH]c(-c2ccccn2)nc2c1CCN(S(=O)(=O)N1CCCC1)C2", "Percent Effect": -20.32}
{"compound": "Cc1c(Cl)cccc1NC(=O)CN(Cc1cccnc1)C(C)C", "Percent Effect": 0.2467}
{"compound": "Cc1ccccc1OCCCC(=O)NC(C)c1nnc2n1CCC2", "stereo": "centres unmarked", "Percent Effect": -53.97}
{"compound": "Cc1cccc(CNc2n[nH]c(C)n2)c1", "Percent Effect": -9.006}
{"compound": "O=C(Cc1ccsc1)N1CCn2cc(Cn3cncn3)nc2C1", "Percent Effect": 26.55}
{"compound": "CCn1cnnc1CNC(=O)C1CCCN(Cc2cccc(F)c2)C1", "stereo": "centres unmarked", "Percent Effect": -0.7209}
{"compound": "CN(CC(N)=O)CC(=O)N1CC=C(c2ccccc2)CC1", "Percent Effect": -7.52}
{"compound": "O=S1(=O)NCC2(CCN(c3ncc(F)cn3)CC2)COc2ccccc21", "Percent Effect": -4.557}
{"compound": "COc1cc(C2CC(=O)Oc3cc(C)[nH]c(=O)c32)ccc1O", "stereo": "centres unmarked", "Percent Effect": -11.24}
{"compound": "Cc1cnn(CC2CCCN2CC(=O)Nc2cc(C)on2)c1", "stereo": "centres unmarked", "Percent Effect": -10.97}
{"compound": "COc1ccc(CN2CCC(c3nnc(-c4scnc4C)o3)CC2)cc1", "Percent Effect": -5.348}
{"compound": "Cc1ccc(C(=O)NCCNC(=O)c2cncnc2C(C)C)cc1F", "Percent Effect": -36.66}
{"compound": "CO[C@H]1C[C@@H]2CN(C(=O)c3cc4ccc(F)cc4[nH]3)C[C@@H]2C1", "Percent Effect": 4.131}
{"compound": "COc1ccc2nc(C[C@@H]3C[C@@H](C(C)C)[C@H](CN(C)C)C=C3C)[nH]c2n1", "Percent Effect": -71.07}
{"compound": "CCOc1cc(CNC(=O)NCc2nc(C)c(C)s2)ccn1", "Percent Effect": -47.93}
{"compound": "N#Cc1cccc(Cl)c1NCCc1n[nH]c(=O)[nH]1", "Percent Effect": 1.77}
{"compound": "COc1ccccc1CN1CCc2c(nc(-c3ccccn3)[nH]c2=O)C1", "Percent Effect": -129}
{"compound": "CC(=O)Nc1nc(C(=O)N2CCCC(n3ccnc3)C2)cs1", "stereo": "centres unmarked", "Percent Effect": -33.19}
{"compound": "CC1(C)CN(C(=O)NCCc2ccn(-c3ccccc3)n2)CCO1", "Percent Effect": -22.06}
{"compound": "COc1ccc(N2CCN(C(=O)CCc3n[nH]c(C)n3)CC2=O)cc1", "Percent Effect": -9.336}
{"compound": "O=C(CC1CCCC1)NCCS(=O)(=O)N1CCN(c2ncccn2)CC1", "Percent Effect": -16.89}
{"compound": "CCc1cnc2c(c1NCc1ccc(OC)cc1)c(=O)n(C)c(=O)n2C", "Percent Effect": -6.309}
{"compound": "O=C(c1ccsc1)N1CCc2c(CNc3nccs3)n[nH]c2C1", "Percent Effect": -6.216}
{"compound": "Cc1cc(N[C@H]2CCCC[C@@H]2O)n2nccc2n1", "Percent Effect": -34.58}
{"compound": "Cc1cc(CN2CCN(S(=O)(=O)c3c(C)c(Cl)cc(C)c3Cl)CC2)on1", "Percent Effect": -26.63}
{"compound": "CN(C)S(=O)(=O)c1ccc2c(c1)N(Cc1ccccn1)CCC2", "Percent Effect": -3.364}
{"compound": "NC(=O)C1CCCN(c2ccc(CNC(=O)c3cnsn3)cc2)C1", "stereo": "centres unmarked", "Percent Effect": -15.54}
{"compound": "COCCNC(=O)c1nc2c(s1)CCCN2Cc1ccccc1", "Percent Effect": -38.45}
{"compound": "Cc1nc(NCC2CC2)nc2c1COCC21CCN(C)C1", "stereo": "centres unmarked", "Percent Effect": -30.32}
{"compound": "Cn1nc(CN2CCCCC2)c2c1CN(Cc1ccoc1)C2", "Percent Effect": 5.635}
{"compound": "Cc1cc(C)c2nc(CN3CCC(CN)CC3)cc(O)c2c1", "Percent Effect": -7.752}
{"compound": "CS(=O)(=O)N1CCN(Cc2csc(-c3ncccn3)n2)CC1", "Percent Effect": -5.467}
{"compound": "Cc1nc(C2CCCN2CC(=O)N2CCCc3ccccc32)no1", "stereo": "centres unmarked", "Percent Effect": -12.38}
{"compound": "CC1(C)CN(C(=O)c2ccccc2-n2cncn2)CC1(C)O", "stereo": "centres unmarked", "Percent Effect": -24.94}
{"compound": "O=C(NCCNC1CCN(c2nccs2)CC1)c1cccs1", "Percent Effect": -24.44}
{"compound": "Cc1cc2c(cc1Cl)C=CC1(CCN(CC(=O)N3CCOCC3)CC1)O2", "Percent Effect": -11.54}
{"compound": "O=C(CC1CCN(c2cccnn2)CC1)NCCO", "Percent Effect": 49.55}
{"compound": "O=C(NCCn1ccnc1)N1CCCC1c1ccncc1", "stereo": "centres unmarked", "Percent Effect": -22.81}
{"compound": "CN(C)C(=O)CN1C[C@H]2CN(Cc3cccc(F)c3)C(=O)[C@H]2C1", "Percent Effect": -7.967}
{"compound": "CCc1nc(C2CCCN2Cc2cc(=O)n(C)c(=O)n2C)no1", "stereo": "centres unmarked", "Percent Effect": -8.457}
{"compound": "COc1ccnc(NCC2CN(C3CC3)CCO2)n1", "stereo": "centres unmarked", "Percent Effect": -8.374}

Measurements from “University of Dundee, Small-Polar-MMV Screening Library” (2021), ChEMBL document CHEMBL3988442.